No constants are given. Whether binding was seen depends on the method and setting. Some entries that bind do so weakly or less than the wild type.
Target: mouse DLL4, full length, overexpressed on CHO or HEK293 cells (mouse) (UniProt Q9JI71)
Experiment: FMAT competition: unlabelled rhNotch1-Fc against labelled hNotch1-Fc on CHO-mDLL4 cells

By UniProt entry, the sequences of proteins in these tests, tags left out. Where a name states a change or a piece, a line headed by the entry shows the natural chain unless it says otherwise. Residues count along the entry.
UniProt Q9JI71, residues 27-686: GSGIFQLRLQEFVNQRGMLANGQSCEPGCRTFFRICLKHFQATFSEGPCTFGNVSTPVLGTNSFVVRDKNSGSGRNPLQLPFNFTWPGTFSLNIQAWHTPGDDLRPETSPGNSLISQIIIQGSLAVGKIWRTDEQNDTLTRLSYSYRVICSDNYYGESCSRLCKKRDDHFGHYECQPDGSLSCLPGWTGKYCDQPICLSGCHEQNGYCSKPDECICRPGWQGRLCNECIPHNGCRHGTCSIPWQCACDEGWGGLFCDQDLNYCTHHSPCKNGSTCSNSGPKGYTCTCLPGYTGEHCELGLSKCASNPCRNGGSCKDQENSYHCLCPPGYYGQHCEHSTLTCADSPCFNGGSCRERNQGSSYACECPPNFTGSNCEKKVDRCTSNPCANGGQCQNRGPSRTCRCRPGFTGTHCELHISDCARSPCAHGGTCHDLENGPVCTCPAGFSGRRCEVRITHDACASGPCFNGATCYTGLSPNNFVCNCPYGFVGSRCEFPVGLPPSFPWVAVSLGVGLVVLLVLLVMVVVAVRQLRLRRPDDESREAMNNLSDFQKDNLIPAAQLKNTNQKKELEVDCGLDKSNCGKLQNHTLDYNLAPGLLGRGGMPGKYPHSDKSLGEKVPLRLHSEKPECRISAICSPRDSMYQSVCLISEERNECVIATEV
UniProt P46531, residues 19-526: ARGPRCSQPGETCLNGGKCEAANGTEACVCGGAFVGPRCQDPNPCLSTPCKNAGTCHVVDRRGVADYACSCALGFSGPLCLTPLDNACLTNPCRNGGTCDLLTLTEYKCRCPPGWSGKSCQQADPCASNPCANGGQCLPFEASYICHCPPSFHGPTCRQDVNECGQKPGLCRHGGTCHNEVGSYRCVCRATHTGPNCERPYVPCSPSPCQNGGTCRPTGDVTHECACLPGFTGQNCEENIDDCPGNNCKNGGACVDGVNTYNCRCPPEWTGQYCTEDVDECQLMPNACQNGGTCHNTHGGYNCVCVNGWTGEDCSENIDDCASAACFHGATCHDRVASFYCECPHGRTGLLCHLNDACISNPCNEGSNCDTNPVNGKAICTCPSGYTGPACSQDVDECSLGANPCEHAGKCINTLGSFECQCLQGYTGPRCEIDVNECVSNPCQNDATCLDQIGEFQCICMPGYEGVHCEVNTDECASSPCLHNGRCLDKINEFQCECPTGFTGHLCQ

recombinant human Notch1/Fc chimera (R&D Systems) (from UniProt P46531 19-526) (Fc fusion)
binding: binds
